# Screening data, single-dose tests

By UniProt entry, the sequences of proteins in these tests, tags left out. Residues count along the entry.
UniProt Q4DA54, 1-478: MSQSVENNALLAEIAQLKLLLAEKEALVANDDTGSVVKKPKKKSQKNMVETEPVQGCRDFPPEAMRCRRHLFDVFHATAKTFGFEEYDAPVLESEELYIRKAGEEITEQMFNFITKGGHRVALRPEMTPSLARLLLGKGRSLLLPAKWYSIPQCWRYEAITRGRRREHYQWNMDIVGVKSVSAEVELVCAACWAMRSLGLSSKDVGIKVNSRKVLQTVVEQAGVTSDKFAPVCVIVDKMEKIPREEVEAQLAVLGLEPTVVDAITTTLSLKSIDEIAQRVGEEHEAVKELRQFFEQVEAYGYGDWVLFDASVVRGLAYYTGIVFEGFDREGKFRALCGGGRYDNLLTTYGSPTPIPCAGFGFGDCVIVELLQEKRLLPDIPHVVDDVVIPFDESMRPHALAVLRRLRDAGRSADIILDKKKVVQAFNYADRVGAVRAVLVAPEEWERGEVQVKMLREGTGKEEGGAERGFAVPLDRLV
UniProt P9WFT3, whole entry: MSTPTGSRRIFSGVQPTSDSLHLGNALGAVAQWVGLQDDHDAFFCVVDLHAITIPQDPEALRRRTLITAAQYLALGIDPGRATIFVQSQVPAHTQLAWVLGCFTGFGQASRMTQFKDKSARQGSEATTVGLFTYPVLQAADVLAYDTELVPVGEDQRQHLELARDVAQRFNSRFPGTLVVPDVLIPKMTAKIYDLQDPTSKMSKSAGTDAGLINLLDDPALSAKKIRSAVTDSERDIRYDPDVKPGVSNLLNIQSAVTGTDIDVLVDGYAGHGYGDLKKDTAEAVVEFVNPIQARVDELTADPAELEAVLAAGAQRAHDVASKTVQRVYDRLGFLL
UniProt I6X8D2, whole entry: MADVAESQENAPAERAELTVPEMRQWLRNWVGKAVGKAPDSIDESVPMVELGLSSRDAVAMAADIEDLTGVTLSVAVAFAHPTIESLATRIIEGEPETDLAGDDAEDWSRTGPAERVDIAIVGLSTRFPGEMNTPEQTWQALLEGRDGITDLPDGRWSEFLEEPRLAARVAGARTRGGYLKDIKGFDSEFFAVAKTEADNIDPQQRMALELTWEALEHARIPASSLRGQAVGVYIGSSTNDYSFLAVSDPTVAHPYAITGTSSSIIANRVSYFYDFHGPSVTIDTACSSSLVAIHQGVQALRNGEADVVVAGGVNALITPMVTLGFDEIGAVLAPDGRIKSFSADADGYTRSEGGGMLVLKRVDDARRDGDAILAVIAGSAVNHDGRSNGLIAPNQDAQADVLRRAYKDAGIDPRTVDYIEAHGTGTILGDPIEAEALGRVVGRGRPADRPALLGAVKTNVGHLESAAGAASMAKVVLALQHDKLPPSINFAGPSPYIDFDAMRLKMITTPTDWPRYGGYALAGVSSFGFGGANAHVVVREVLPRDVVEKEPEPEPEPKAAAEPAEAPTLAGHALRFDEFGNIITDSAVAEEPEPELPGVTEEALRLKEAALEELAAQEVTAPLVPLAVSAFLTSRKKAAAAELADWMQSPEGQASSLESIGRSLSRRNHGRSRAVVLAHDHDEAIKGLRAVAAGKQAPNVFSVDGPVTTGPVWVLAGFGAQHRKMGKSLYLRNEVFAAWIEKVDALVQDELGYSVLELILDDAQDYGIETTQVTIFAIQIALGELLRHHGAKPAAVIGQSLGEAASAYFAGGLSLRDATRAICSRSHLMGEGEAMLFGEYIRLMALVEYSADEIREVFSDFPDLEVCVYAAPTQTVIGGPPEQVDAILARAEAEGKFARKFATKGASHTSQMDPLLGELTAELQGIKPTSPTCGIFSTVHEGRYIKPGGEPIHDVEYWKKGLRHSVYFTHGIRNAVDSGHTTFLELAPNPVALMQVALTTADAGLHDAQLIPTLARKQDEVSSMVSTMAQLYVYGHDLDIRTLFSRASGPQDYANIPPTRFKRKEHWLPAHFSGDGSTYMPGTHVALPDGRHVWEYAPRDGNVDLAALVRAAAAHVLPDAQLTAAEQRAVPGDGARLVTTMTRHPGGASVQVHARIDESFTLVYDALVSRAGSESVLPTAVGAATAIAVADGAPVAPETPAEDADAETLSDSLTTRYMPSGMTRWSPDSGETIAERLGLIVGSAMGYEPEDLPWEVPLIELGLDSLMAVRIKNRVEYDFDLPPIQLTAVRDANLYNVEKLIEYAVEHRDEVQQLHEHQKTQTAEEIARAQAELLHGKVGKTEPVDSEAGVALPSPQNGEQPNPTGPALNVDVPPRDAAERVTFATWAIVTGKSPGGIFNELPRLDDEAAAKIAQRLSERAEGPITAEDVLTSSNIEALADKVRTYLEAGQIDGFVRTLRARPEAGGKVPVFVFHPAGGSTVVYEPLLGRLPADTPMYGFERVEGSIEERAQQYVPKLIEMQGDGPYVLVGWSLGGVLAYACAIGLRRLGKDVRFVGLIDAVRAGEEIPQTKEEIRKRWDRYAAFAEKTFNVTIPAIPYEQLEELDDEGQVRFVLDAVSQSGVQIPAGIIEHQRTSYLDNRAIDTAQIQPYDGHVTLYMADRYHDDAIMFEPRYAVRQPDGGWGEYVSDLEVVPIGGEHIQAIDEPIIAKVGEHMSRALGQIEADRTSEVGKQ
UniProt Q8IDJ8, 1-583: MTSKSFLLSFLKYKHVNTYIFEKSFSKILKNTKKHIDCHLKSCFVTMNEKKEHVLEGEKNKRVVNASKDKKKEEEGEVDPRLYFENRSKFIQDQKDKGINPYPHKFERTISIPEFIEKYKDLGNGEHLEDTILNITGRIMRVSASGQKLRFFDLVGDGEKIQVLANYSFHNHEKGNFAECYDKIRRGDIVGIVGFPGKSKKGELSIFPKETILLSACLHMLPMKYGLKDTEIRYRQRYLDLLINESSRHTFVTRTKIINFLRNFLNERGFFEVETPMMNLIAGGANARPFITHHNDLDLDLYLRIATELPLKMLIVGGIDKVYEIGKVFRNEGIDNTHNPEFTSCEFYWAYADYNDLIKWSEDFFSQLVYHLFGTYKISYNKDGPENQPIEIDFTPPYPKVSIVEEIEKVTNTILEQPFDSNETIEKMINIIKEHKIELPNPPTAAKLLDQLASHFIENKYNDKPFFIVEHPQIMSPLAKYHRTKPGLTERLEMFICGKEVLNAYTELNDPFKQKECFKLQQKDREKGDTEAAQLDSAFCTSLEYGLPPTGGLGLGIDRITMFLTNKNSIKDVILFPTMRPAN

TcHisRS: 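Enzyme assay of histidyl-tRNA synthetase; the read-out is not stated. Target: Histidine-tRNA ligase, Trypanosoma cruzi CL Brener (UniProt Q4DA54). Tested at 30 µM. Higher reads as stronger inhibition (inferred: compounds with an IC50 in retests scored well above the rest). Size under these conditions: about 69,000 compounds, about 31 of them at 50% or above in at least one test.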
MtTrpRS: 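Enzyme assay of tryptophanyl-tRNA synthetase; the read-out is not stated. Target: Tryptophan-tRNA ligase, Mycobacterium tuberculosis (UniProt P9WFT3). Concentration: 10 µM. Higher most likely means stronger inhibition; the record gives no direction and few retests gave an IC50. About 65,000 compounds were tested under these conditions; 0.098% (about 64) showed 50% or more at least once.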
Pks13 thioesterase: 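Polyketide synthase Pks13, Mycobacterium tuberculosis (UniProt I6X8D2). Enzyme assay of the thioesterase domain of polyketide synthase 13; the read-out is not stated. Concentration: 30 µM. The record gives no direction; the compounds picked for IC50 retests had high values, so higher reads as stronger inhibition. Of about 67,000 compounds tested this way, about 300 (0.46%) reached 50% or more in at least one test.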
PfKRS1: 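Enzyme assay of the cytosolic lysyl-tRNA synthetase in 384-well plates, read by luminescence. Target: Lysine-tRNA ligase, Plasmodium falciparum 3D7 (UniProt Q8IDJ8). Concentration: 30 µM. Direction is inferred from only a few compounds that gave an IC50; most scored high, so higher reads as stronger inhibition. About 69,000 compounds were tested under these conditions; 0.071% (about 49) showed 50% or more at least once.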
Toxoplasma: 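Assay of Toxoplasma gondii numbers, read through their beta-galactosidase reporter with a colour substrate. Concentration: 10 µM. Higher reads as fewer parasites (inferred from which compounds were picked for retests). Size under these conditions: about 67,000 compounds, about 260 of them at 50% or above in at least one test.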

Results are given as percent effect.
How 0% and 100% were set is not recorded. Most values in the screen are low, and negative values occur.
The compounds are a random part of those screened.
A dash means the value is not listed here; it may have been measured.

| # | SMILES | TcHisRS | MtTrpRS | Pks13 thioesterase | PfKRS1 | Toxoplasma |
|---|---|---|---|---|---|---|
| 1 | `O=C(O)C(F)(F)F.c1ccn(Cc2noc3c2CN(Cc2ccsc2)CC3)c1` | - | - | - | - | 4.423 |
| 2 | `COc1ccc(C(=O)N(C)Cc2cc(C)on2)c(OC)c1` | 0.8333 | 0.4946 | -3.893 | -0.977 | 3.816 |
| 3 | `CC(C)(C)c1cnc(CN2CCC(NC(=O)CC3CCCC3)CC2)o1` | -0.5587 | 10.5 | 3.445 | -2.107 | 3.424 |
| 4 | `Cc1cc(C(=O)N2CC[C@@H](O)[C@@H]2Cc2ccccc2)no1` | -21.36 | -5.087 | -22.53 | 2.483 | -2.922 |
| 5 | `COC(=O)c1cc(C)nc(N2CCN(Cc3cc(C(C)C)no3)CC2)n1` | 5.155 | -3.849 | -11.23 | -1.33 | 2.516 |
| 6 | `COCCN(C)C[C@H]1C[C@H](CO)CN(C(=O)c2ccc(=O)n(C)c2)C1` | 0 | -1.29 | 8.635 | -0.0704 | 4.628 |
| 7 | `Cc1ccc(C(=O)N2CCOCC3(CCN(C4CCOCC4)C3)C2)o1` (stereo not given) | 3.659 | -3.596 | 7.293 | 2.7 | - |
| 8 | `CC(C)(C)OC(=O)N1CCCCC1C(=O)NCc1cc[nH]n1` (stereo not given) | 1.058 | 6.371 | -18.17 | 0.2627 | 5.172 |
| 9 | `CCc1ncncc1C(=O)NCCNS(=O)(=O)c1ccc(C)cc1` | 0.5405 | -1.784 | -14.45 | 1.67 | 2.194 |
| 10 | `O=C(O)c1ccc(CC2CCN(S(=O)(=O)N3CCOCC3)C2)cc1` (stereo not given) | 5.6 | -2.429 | -3.443 | 2.39 | 2.703 |
| 11 | `O=C(c1ccc2[nH]ccc2c1)N1CCCSCC1CN1CCCC1` (stereo not given) | 7 | 1.866 | -10.59 | 3.117 | 8.867 |
| 12 | `CC(C)(C)c1coc([C@@H]2COCCN2CC2CC2)n1` | 4.478 | -0.9916 | - | 6.217 | 0.07437 |
| 13 | `CC(C)=CCC1(CO)CCCN(S(C)(=O)=O)C1` (stereo not given) | -0.5291 | 0.2973 | -2.764 | 3.038 | 1.586 |
| 14 | `CC(CCSc1ccccc1)N1CCCN(C(N)=O)CC1` (stereo not given) | 6.494 | 3.612 | -4.991 | 1.82 | 5.472 |
| 15 | `CCN1Cc2nccn2CC(COCc2csc(C)n2)C1` (stereo not given) | 4.444 | - | 7.497 | 5.414 | - |
| 16 | `CCCc1noc(C(C)N2CCN(CCn3ccccc3=O)CC2)n1` (stereo not given) | 5.882 | -6.84 | -29.46 | 0.3504 | -5.431 |
| 17 | `Cc1cc(C)c(CCNC(=O)NCCCC(N)=O)c(C)c1` | -1.053 | -2.006 | -10.97 | 6.83 | -8.554 |
| 18 | `CC(=O)N1CCOC(c2cc(N3CC(O)C3)nc(C)n2)C1` (stereo not given) | -4.918 | -1.233 | -24.54 | -3.253 | 2.163 |
| 19 | `Cc1nc(C)c(CNC[C@@]2(COc3cccnc3)C[C@@H](O)[C@@H](O)C2)s1` | 4.348 | -10.39 | -17.9 | 3.707 | - |
| 20 | `CCS(=O)(=O)c1ccc(N2CCC(NC(=O)C(C)SC)CC2)cc1` (stereo not given) | 4.082 | 5.004 | -10.17 | 5.45 | -3.846 |
| 21 | `Cc1nnc(SCC(=O)NCc2ccc3c(c2)CCC(=O)N3)s1` | 3.097 | -2.562 | -13.42 | 8.064 | 9.476 |
| 22 | `Cc1nn(CC(=O)N2CCN(Cc3cccnc3)CC2)c(C)c1Cl` | 0.8333 | 2.308 | 10.89 | -2.549 | 5.836 |
| 23 | `c1cc(CNCc2ccnc(N3CCOCC3)c2)c2c(c1)OCO2` | 1.058 | 0.831 | -10.24 | -2.684 | - |
| 24 | `CCc1c(C)nn(CCNC(=O)c2csc(C)n2)c1C` | 8.081 | -1.102 | 3.162 | 12.08 | -8.854 |
| 25 | `CS(=O)(=O)CCCNC(=O)NC1CC(c2cccc(Cl)c2)C1` (stereo not given) | 11.6 | -2.457 | -4.927 | 3.462 | 3.996 |
| 26 | `CS(=O)(=O)N1CCC(NC(=O)COc2ccc(Cl)cc2)CC1` | 6.553 | -0.5111 | -4.489 | -0.4288 | 1.302 |
| 27 | `COc1ccc(OCc2cc(C(=O)N3CCC(O)CC3)n[nH]2)c(Cl)c1` | 0 | 2.143 | -0.7623 | 2.751 | 5.836 |
| 28 | `N#Cc1ccc(C(=O)NCCCNc2ccc(C(F)(F)F)cn2)cc1` | 2.662 | -1.572 | 10.93 | 2.898 | 13.69 |
| 29 | `CCCc1nc(CN2CCCC2Cn2cccn2)cs1` (stereo not given) | 3.922 | -0.301 | 3.917 | 3.661 | -3.068 |
| 30 | `Cn1cc(C(=O)N[C@@H]2CN(Cc3cccnc3)[C@@H]3CCCO[C@@H]32)cn1` | 6.863 | -0.9764 | -28.62 | 1.274 | - |
| 31 | `Cc1sc(CN)nc1-c1ccc(Cl)cc1Cl` | -8.293 | -0.07886 | -15.98 | 2.597 | 14.57 |

The last 2 entries again:

{"smiles": "Cn1cc(C(=O)N[C@@H]2CN(Cc3cccnc3)[C@@H]3CCCO[C@@H]32)cn1", "TcHisRS": 6.863, "MtTrpRS": -0.9764, "Pks13 thioesterase": -28.62, "PfKRS1": 1.274}
{"smiles": "Cc1sc(CN)nc1-c1ccc(Cl)cc1Cl", "TcHisRS": -8.293, "MtTrpRS": -0.07886, "Pks13 thioesterase": -15.98, "PfKRS1": 2.597, "Toxoplasma": 14.57}

Data taken from ChEMBL document CHEMBL3988442, “University of Dundee, Small-Polar-MMV Screening Library” (2021).